Experimental data taken from PMC4992866.
Results are given in words; binding and its absence hold for the method and conditions named. In cells and extracts the contact can be indirect. Some entries that bind do so weakly or less than the wild type. Sequences can lack the tags named with a protein.

T1: Venus^N173-RAPTOR1B (Arabidopsis thaliana) (UniProt Q93YQ1)
T1 sequence: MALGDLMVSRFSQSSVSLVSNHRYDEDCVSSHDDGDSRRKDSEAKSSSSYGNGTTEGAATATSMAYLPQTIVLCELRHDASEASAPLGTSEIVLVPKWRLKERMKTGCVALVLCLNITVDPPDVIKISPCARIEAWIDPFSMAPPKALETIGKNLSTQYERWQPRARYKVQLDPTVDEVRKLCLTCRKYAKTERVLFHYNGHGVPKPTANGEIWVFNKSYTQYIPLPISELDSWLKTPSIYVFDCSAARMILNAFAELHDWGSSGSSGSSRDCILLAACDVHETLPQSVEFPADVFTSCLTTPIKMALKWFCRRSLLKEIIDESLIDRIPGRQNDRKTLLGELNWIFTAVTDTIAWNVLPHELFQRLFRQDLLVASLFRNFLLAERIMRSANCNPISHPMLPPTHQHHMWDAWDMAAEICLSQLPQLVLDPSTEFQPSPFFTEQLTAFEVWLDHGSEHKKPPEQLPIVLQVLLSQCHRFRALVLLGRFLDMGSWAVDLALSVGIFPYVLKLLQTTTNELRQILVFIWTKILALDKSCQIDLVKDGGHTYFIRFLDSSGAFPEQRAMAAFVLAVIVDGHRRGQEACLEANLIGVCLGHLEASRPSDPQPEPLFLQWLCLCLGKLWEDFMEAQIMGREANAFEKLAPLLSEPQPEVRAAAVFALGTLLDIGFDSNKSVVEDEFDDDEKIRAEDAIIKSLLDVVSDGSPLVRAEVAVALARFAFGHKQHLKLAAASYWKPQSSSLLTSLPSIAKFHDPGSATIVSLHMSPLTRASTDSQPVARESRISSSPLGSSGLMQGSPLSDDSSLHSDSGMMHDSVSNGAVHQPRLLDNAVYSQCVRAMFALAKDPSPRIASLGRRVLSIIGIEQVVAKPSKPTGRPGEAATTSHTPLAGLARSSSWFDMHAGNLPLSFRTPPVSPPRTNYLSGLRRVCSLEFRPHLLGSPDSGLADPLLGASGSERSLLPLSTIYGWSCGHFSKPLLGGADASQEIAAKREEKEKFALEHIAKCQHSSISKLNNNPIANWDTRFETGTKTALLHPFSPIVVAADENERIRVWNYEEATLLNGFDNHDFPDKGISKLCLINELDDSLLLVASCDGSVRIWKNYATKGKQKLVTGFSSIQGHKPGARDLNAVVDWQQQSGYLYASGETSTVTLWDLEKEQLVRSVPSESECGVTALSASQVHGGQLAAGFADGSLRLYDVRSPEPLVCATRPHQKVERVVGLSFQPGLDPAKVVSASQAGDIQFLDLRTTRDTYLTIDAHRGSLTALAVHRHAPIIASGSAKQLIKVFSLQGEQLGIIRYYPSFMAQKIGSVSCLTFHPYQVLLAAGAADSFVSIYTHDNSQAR

B1: SnRK1α1-Venus^C155 (protein, UniProt Q38997 1-512)
chain: MDGSGTGSRSGVESILPNYKLGRTLGIGSFGRVKIAEHALTGHKVAIKILNRRKIKNMEMEEKVRREIKILRLFMHPHIIRLYEVIETPTDIYLVMEYVNSGELFDYIVEKGRLQEDEARNFFQQIISGVEYCHRNMVVHRDLKPENLLLDSKCNVKIADFGLSNIMRDGHFLKTSCGSPNYAAPEVISGKLYAGPEVDVWSCGVILYALLCGTLPFDDENIPNLFKKIKGGIYTLPSHLSPGARDLIPRMLVVDPMKRVTIPEIRQHPWFQAHLPRYLAVPPPDTVQQAKKIDEEILQEVINMGFDRNHLIESLRNRTQNDGTVTYYLILDNRFRASSGYLGAEFQETMEGTPRMHPAESVASPVSHRLPGLMEYQGVGLRSQYPVERKWALGLQSRAHPREIMTEVLKALQDLNVCWKKIGHYNMKCRWVPNSSADGMLSNSMHDNNYFGDESSIIENEAAVKSPNVVKFEIQLYKTRDDKYLLDLQRVQGPQFLFLDLCAAFLAQLRVL
B2: cytosolic fructose-1,6-bisphosphatase (FBPase) fused to VENUS^C155 (enzyme, UniProt Q9MA79 1-341)
chain: MDHAADAHRTDLMTITRFVLNEQSKYPESRGDFTILLSHIVLGCKFVCSAVNKAGLAKLIGLAGETNIQGEEQKKLDVLSNDVFVNALVSSGRTSVLVSEEDEEATFVEPSKRGKYCVVFDPLDGSSNIDCGVSIGTIFGIYTLDHTDEPTTADVLKPGNEMVAAGYCMYGSSCMLVLSTGTGVHGFTLDPSLGEFILTHPDIKIPNKGNIYSVNEGNAQNWDGPTTKYVEKCKFPKDGSPAKSLRYVGSMVADVHRTLLYGGIFLYPADKKSPNGKLRVLYEVFPMSFLMEQAGGQAFTGKKRALDLVPEKIHERSPIFLGSYDDVEEIKALYAEEEKKN

Biological target: T1, Venus^N173-RAPTOR1B (Arabidopsis thaliana)
Test: split reporter; BiFC with split Venus (VENUS^N173 on the bait, VENUS^C155 on the prey); N. benthamiana leaves transiently co-transformed by Agrobacterium-infiltration; confocal laser scanning microscopy 48 h after infiltration; same microscope settings for all samples

| binding | Binder |
| --- | --- |
| binds | B1 |
| no binding | B2 |
